Amino acid sequences for entries named in this document (tags omitted).
UniProt P15056, whole entry V600E: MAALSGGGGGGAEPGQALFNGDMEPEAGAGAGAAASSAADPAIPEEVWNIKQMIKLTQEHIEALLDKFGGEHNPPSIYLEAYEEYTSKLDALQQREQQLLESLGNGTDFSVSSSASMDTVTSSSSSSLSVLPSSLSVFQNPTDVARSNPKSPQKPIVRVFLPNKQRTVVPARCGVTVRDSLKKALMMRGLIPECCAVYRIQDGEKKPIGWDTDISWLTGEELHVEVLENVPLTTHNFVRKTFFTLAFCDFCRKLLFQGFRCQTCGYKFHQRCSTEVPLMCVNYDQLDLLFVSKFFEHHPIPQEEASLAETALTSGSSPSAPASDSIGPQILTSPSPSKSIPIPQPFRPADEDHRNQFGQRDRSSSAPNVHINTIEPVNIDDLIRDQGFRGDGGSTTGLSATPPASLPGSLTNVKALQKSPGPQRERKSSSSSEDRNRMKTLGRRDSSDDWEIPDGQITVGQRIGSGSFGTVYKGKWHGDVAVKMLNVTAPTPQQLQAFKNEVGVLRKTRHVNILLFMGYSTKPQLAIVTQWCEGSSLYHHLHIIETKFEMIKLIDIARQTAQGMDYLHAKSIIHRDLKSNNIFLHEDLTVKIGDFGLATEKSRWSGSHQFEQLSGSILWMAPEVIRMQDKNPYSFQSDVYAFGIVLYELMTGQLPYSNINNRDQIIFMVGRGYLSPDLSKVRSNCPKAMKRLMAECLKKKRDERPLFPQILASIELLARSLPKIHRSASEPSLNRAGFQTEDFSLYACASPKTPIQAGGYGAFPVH

Some results were stated once for a whole list of compounds, not compound by compound.
Each molecule was assayed against T1, V600E full-length B-Raf (Homo sapiens, UniProt P15056, V600E) (assay: B-Raf IC50 assay: incorporation of radio labeled phosphate from [γ-33P]ATP into FSBA-modified wild-type MEK). Conditions: bound stated.
T1 construct: made in house; host or cells: Sf9 insect cells (baculovirus)
Type: biochemical
Method in brief: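 Sf9-expressed enzyme (20 nM) preincubated 15 min with 1 µM FSBA-MEK, then reaction started with ATP (4 µM final plus [γ-33P]ATP) in Pipes pH 7.2, 100 mM KCl, 10 mM MgCl2. 60 min at 22 °C; TCA-quenched, filter-captured product counted by scintillation.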
COc1n[nH]c2ncc(NC(=O)c3c(Cl)ccc(OCc4ccc(F)cc4F)c3F)cc12 [Example 62, 6-chloro-3-(2,4-difluorobenzyloxy)-2-fluoro-N-(3-methoxy-1H-pyrazolo[3,4-b]pyridin-5-yl)benzamide] showed an IC50 of less than 1000 nM.
COc1n[nH]c2ncc(NC(=O)c3c(Cl)ccc(OCc4ccc(C)nc4)c3F)cc12 [Example 46, 6-chloro-2-fluoro-N-(3-methoxy-1H-pyrazolo[3,4-b]pyridin-5-yl)-3-((6-methylpyridin-3-yl)methoxy)benzamide] gave an IC50 of less than 1000 nM.
In the case of COc1n[nH]c2ncc(NC(=O)c3c(Cl)ccc(OCc4ccc5ncccc5c4)c3F)cc12 [Example 69, 6-chloro-2-fluoro-N-(3-methoxy-1H-pyrazolo[3,4-b]pyridin-5-yl)-3-(quinolin-6-ylmethoxy)benzamide], the IC50 is reported as less than 1000 nM.
Molecule COc1n[nH]c2ncc(NC(=O)c3c(F)ccc(OCc4ccccc4)c3F)cc12 [Example 26, 3-(benzyloxy)-2,6-difluoro-N-(3-methoxy-1H-pyrazolo[3,4-b]pyridin-5-yl)benzamide] has an IC50 of less than 1000 nM.
COc1n[nH]c2ncc(NC(=O)c3c(C)ccc(OCc4ccc(C(F)(F)F)cc4)c3F)cc12 [Example 73, 2-fluoro-N-(3-methoxy-1H-pyrazolo[3,4-b]pyridin-5-yl)-6-methyl-3-(4-(trifluoromethyl)benzyloxy)benzamide] showed an IC50 of less than 1000 nM.
COc1n[nH]c2ncc(NC(=O)c3cccc(OCc4ccccc4)c3)cc12 [Example 1, 3-(benzyloxy)-N-(3-methoxy-1H-pyrazolo[3,4-b]pyridin-5-yl)benzamide] gave an IC50 of less than 1000 nM.
Work on COc1n[nH]c2ncc(NC(=O)c3c(Cl)ccc(OCc4csc(C)n4)c3F)cc12 [Example 59, 6-chloro-2-fluoro-N-(3-methoxy-1H-pyrazolo[3,4-b]pyridin-5-yl)-3-((2-methylthiazol-4-yl)methoxy)benzamide] yielded an IC50 of less than 1000 nM.
With COc1n[nH]c2ncc(NC(=O)c3c(Cl)ccc(OCc4cc(C)on4)c3F)cc12 [Example 61, 6-chloro-2-fluoro-N-(3-methoxy-1H-pyrazolo[3,4-b]pyridin-5-yl)-3-((5-methylisoxazol-3-yl)methoxy)benzamide] the IC50 was less than 1000 nM.
For COc1n[nH]c2ncc(NC(=O)c3c(Cl)ccc(OCc4cscn4)c3F)cc12 [Example 37, 6-chloro-2-fluoro-N-(3-methoxy-1H-pyrazolo[3,4-b]pyridin-5-yl)-3-(thiazol-4-ylmethoxy)benzamide], the IC50 was less than 1000 nM.
For COc1n[nH]c2ncc(NC(=O)c3c(Cl)ccc(OCc4cccc(CN5CCOCC5)c4)c3F)cc12 [Example 64, 6-chloro-2-fluoro-N-(3-methoxy-1H-pyrazolo[3,4-b]pyridin-5-yl)-3-(3-(morpholinomethyl)benzyloxy)benzamide], the IC50 was less than 1000 nM.
COc1n[nH]c2ncc(NC(=O)c3c(Cl)ccc(OCc4ccc(C(F)(F)F)cc4)c3F)cc12 [Example 19, 6-chloro-2-fluoro-N-(3-methoxy-1H-pyrazolo[3,4-b]pyridin-5-yl)-3-(4-(trifluoromethyl)benzyloxy)benzamide] gave an IC50 of less than 1000 nM.

Source: US20120157452A1, “1H-PYRAZOLO[3,4-B] PYRIDINE COMPOUNDS FOR INHIBITING RAF KINASE” (GENENTECH, INC., priority 2009, published 2012)
